In paper PMC4208761, “Molecular Insights into the Interaction between Plasmodium falciparum Apical Membrane Antigen 1 and an Invasion-Inhibitory Peptide” (PLoS ONE, 2014):
No constants are given. Whether binding was seen depends on the method and setting. Values belong to the molecule of their own block, whether it stands above or below them.

Key:
[1] = target: 3D7 PfAMA1 (residue 104-442) with His tag not cleaved, for SEC and SAXS (Plasmodium falciparum 3D7) (UniProt Q7KQK5); assay: SAXS; both purified
[2] = target: 3D7 PfAMA1 (residue 104-442) with His tag not cleaved, for SEC and SAXS (Plasmodium falciparum 3D7) (UniProt Q7KQK5); assay: SEC; both purified
[3] = target: Domain I+II of 3D7 PfAMA1 (residue 104-442), immobilised for SPR (Plasmodium falciparum 3D7) (UniProt Q7KQK5); assay: SPR; both purified

Molecule: 3D7 PfAMA1 (residue 104-442) with His tag not cleaved, for SEC and SAXS (from UniProt Q7KQK5 104-442) (domain or fragment)
- binding [1]: no binding
- binding [2]: no binding (tested: 200 µM)

B1: R1_(1-11) (peptide)
peptide: VFAEFLPLFSK
modifications: N-terminally acetylated; C-terminally amidated
- binding [3]: no binding (tested: 10 µM)

B3: R1_(5-14) (peptide)
peptide: FLPLFSKFGS
modifications: N-terminally acetylated; C-terminally amidated
- binding [3]: no binding (tested: 10 µM)

Other lines, results leading:

- binding [3]: no binding (tested: 10 µM)
B2: R1_(11-20) (peptide)
peptide: KFGSRMHILK
modifications: N-terminally acetylated; C-terminally amidated

- binding [3]: no binding (tested: >100 µM)
B4: R1_(5-16) R15A (peptide)
peptide: FLPLFSKFGSAM
modifications: N-terminally acetylated; C-terminally amidated
